Measurements taken from the supplement of paper PMC10849652.
The list shows a part of the results.

Sequences of proteins named here, by UniProt entry; tags and fusion partners are left off. A change or cut given only in a name is not applied to a line headed by its entry.
UniProt P62308, whole entry, looked up: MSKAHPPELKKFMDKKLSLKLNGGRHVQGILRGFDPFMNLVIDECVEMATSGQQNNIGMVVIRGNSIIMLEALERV
UniProt O60749: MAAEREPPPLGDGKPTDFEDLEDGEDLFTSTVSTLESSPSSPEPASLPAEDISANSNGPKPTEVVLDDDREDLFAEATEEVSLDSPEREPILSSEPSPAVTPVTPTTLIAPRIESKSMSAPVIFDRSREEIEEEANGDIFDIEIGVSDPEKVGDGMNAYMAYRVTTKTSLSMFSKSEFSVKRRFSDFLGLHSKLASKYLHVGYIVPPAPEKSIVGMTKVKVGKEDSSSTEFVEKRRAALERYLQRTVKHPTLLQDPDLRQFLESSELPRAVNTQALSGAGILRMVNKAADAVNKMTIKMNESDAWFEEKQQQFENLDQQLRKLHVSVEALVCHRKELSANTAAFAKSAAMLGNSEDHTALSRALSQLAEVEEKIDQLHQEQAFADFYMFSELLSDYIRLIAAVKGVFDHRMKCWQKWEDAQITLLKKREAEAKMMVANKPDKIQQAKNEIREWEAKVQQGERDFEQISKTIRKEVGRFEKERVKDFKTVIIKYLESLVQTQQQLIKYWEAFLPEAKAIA
UniProt O60271: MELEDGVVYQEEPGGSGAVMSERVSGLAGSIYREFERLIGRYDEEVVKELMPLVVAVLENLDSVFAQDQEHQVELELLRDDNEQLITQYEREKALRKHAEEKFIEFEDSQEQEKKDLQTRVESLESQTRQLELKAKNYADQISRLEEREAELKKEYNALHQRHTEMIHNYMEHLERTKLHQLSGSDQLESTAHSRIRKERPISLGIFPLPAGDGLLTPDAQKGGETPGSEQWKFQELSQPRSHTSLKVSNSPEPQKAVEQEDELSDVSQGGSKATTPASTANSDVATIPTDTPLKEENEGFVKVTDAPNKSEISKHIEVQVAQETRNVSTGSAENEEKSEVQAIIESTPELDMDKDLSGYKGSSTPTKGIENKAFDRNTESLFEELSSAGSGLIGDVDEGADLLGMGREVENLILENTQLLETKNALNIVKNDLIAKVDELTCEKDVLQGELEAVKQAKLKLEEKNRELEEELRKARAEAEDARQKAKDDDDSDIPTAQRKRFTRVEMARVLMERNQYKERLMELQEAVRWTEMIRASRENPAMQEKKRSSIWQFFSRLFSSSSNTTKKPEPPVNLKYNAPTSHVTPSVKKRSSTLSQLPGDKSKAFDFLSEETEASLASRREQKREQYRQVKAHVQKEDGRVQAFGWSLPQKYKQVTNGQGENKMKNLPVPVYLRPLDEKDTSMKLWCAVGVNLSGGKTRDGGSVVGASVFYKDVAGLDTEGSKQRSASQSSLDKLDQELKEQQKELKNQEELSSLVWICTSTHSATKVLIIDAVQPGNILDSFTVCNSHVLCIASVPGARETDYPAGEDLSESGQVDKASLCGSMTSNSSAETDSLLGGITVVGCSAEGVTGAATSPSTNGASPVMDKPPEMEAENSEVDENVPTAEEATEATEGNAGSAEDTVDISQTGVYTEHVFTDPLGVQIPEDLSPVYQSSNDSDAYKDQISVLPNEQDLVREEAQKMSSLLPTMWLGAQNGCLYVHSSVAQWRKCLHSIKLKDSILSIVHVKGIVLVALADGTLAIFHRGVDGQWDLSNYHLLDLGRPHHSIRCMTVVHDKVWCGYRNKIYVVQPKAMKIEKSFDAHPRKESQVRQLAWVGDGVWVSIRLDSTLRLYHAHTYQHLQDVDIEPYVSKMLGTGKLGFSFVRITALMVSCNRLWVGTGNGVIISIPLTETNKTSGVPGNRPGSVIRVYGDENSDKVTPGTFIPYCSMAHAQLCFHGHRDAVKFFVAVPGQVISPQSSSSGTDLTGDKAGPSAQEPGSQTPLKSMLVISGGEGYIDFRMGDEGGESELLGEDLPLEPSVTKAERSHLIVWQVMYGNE
UniProt P62318, whole entry, looked up: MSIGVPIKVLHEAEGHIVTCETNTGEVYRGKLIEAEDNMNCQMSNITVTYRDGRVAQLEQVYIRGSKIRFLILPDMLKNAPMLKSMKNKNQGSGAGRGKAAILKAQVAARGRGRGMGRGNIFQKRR
UniProt O94964: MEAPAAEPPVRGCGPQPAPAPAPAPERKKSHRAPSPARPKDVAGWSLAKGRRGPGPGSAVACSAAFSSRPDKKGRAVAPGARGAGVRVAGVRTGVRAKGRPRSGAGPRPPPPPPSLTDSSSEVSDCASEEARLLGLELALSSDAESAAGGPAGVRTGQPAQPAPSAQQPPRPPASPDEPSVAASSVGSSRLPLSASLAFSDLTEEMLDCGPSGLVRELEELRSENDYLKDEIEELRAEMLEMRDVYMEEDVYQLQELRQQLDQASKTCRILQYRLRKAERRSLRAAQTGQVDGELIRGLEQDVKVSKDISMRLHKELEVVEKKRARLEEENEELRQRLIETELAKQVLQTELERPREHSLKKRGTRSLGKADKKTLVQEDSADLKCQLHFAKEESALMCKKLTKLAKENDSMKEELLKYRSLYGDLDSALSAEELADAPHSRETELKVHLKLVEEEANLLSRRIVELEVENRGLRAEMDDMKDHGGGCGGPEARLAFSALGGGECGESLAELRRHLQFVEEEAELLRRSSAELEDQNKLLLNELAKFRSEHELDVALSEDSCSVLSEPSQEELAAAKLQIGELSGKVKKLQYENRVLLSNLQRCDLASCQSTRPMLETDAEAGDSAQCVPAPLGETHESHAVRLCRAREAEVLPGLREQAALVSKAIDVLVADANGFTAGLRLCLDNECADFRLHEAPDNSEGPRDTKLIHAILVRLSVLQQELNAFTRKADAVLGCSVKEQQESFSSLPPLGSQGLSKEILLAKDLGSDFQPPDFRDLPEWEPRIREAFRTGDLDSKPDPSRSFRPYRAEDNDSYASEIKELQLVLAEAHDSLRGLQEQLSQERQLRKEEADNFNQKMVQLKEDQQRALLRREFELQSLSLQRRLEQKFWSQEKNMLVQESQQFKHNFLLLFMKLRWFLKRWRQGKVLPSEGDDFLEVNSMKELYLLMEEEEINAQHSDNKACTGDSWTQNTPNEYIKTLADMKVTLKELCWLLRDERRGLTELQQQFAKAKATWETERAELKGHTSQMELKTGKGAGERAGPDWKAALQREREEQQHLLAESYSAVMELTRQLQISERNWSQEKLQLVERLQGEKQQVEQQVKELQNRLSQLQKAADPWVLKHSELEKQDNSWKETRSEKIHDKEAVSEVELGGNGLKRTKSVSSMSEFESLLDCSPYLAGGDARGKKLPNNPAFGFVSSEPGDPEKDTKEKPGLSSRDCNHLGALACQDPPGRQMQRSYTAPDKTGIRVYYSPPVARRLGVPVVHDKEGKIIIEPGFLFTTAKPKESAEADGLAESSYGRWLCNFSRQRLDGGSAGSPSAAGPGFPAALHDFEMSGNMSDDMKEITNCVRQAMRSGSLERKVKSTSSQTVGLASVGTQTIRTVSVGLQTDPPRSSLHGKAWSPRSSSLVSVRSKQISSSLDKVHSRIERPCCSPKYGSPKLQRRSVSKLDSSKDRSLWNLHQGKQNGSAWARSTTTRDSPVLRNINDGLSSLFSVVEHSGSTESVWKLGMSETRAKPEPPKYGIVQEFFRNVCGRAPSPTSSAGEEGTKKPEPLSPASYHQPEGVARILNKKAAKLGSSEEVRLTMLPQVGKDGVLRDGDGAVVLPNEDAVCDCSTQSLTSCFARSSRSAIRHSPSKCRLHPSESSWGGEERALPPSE
UniProt O95295: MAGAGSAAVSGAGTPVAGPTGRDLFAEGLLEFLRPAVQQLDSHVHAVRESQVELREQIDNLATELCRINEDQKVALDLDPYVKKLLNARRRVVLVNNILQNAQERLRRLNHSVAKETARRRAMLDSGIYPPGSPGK
UniProt Q8NDV3: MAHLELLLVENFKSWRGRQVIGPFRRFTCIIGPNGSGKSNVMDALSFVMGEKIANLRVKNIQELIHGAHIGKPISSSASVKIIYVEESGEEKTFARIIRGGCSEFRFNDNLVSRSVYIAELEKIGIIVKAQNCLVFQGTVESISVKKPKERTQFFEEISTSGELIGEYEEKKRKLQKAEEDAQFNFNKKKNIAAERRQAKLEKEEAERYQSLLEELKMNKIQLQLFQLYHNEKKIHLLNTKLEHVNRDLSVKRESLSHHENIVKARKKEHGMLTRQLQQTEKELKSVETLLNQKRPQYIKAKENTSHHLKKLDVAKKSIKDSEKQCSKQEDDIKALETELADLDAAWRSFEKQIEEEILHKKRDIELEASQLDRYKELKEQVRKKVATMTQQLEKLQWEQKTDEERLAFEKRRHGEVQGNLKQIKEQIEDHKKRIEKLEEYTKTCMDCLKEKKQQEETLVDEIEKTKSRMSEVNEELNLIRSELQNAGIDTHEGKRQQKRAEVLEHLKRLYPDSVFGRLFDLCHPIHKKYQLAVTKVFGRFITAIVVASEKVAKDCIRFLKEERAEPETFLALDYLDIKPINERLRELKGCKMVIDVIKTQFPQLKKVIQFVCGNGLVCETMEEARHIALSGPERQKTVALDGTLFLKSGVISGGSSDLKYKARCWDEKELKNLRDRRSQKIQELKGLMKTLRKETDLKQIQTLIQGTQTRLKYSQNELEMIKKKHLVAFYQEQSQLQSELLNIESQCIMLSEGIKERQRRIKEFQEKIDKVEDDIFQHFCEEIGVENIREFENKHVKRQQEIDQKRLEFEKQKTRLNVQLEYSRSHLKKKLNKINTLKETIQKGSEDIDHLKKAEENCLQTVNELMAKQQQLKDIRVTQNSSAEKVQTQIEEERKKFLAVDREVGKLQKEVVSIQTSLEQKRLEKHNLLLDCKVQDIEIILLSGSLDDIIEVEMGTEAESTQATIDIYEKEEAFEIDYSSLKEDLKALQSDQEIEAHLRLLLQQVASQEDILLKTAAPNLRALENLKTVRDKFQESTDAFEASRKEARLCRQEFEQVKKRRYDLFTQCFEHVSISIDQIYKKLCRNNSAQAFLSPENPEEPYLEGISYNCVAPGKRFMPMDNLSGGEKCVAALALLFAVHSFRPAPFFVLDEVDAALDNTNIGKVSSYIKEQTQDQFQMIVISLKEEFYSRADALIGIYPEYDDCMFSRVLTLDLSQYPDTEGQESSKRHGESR
UniProt Q9Y5W9: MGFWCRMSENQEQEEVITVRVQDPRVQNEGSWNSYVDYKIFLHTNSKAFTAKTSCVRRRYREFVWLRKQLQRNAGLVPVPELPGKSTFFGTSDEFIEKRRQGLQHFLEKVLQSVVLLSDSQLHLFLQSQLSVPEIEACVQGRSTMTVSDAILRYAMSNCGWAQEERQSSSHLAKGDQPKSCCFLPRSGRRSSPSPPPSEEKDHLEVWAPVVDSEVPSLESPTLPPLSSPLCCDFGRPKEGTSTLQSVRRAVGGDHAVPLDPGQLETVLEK
UniProt Q8TAQ2, whole entry, looked up: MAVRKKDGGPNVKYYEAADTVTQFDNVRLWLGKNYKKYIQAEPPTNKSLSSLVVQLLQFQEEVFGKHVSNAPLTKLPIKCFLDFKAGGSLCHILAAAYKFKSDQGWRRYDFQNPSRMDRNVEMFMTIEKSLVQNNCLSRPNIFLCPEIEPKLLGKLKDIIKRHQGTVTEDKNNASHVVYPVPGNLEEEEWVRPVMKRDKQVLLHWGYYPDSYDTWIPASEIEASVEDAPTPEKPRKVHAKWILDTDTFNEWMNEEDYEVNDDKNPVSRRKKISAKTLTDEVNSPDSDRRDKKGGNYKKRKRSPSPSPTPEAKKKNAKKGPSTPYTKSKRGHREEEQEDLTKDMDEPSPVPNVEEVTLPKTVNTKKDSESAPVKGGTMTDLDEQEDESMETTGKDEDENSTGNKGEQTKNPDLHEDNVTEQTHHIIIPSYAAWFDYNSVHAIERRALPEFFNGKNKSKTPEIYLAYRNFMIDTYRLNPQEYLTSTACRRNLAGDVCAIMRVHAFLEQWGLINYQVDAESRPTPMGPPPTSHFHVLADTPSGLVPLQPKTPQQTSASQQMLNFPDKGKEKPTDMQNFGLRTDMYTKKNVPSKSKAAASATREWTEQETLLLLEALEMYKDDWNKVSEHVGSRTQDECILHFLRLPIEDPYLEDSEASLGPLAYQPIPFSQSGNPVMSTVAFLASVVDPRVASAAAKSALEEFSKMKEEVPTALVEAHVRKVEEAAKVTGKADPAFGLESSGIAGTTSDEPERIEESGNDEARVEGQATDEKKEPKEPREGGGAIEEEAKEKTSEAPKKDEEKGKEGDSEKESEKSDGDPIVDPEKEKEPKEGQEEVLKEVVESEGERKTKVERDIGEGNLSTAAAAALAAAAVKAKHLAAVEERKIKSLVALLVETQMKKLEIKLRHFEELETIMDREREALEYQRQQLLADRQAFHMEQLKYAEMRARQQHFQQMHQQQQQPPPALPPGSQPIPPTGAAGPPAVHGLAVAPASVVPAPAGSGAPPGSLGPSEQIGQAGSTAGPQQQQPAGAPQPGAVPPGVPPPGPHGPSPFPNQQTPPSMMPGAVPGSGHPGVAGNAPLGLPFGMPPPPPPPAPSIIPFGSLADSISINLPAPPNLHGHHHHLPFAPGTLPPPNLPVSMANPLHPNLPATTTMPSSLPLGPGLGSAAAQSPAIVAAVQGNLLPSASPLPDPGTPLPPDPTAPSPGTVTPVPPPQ

The targets below were run with C#Cc1cccc(Nc2ncnc3cc(OCCOC)c(OCCOC)cc23)c1 [erlotinib] (assay: log2 fold change, soluble protein after heating vs DMSO (PISA); higher = thermal stabilisation; K562 lysate, 10 uM; active = over 0.2 and 3.5 SD of the protein, either way, in both replicates (recomputed)).
Summary of the method: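 Thermal stability, expressed as log-two fold change relative to solvent controls, is given from duplicates. Crude K562 extract in PBS pH 7.4 with 1 mM MgCl2, at 1 mg/mL protein, was treated with 10 μM compound for 30 min and heated in aliquots for 3 min across 48°C-58°C. After pooling, adjustment to 0.5% NP-40 at 4°C and centrifugation at 21,000xg for 90 min, supernatant protein was measured by TMTpro 16plex LC-MS/MS with channel sums equalised.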

log2 fold change, inactive:
SNRPG (UniProt P62308) -0.004
SNX27 (UniProt Q96L92) 0.024
SMARCD1 (UniProt Q96GM5) -0.015
SNRNP70 (UniProt P08621) -0.025
SNX2 (UniProt O60749) 0.003
SMARCA4 (UniProt P51532) -0.01
SPAG9 (UniProt O60271) 0.014
SMCHD1 (UniProt A6NHR9) 0.008
SNRPD3 (UniProt P62318) 0.017
SMN1 (UniProt Q16637) 0.038
SNAP23 (UniProt O00161) -0.01
SOGA1 isoform 2 (UniProt O94964) -0.038
SORBS1 isoform 8 (UniProt Q9BX66) -0.021
SNTB2 (UniProt Q13425) 0.06
SMARCAD1 isoform 2 (UniProt Q9H4L7) 0
SNX15 (UniProt Q9NRS6) -0.074
SNAPIN (UniProt O95295) -0.005
SPAG7 (UniProt O75391) -0.009
SMC1B isoform 3 (UniProt Q8NDV3) -0.002
SNX3 (UniProt O60493) -0.044
SNRPF (UniProt P62306) -0.029
SNRNP40 (UniProt Q96DI7) 0.025
SNRNP200 (UniProt O75643) 0.003
SPARC (UniProt P09486) 0.059
SNRPC (UniProt P09234) -0.032
SNX17 (UniProt Q15036) -0.011
SMARCD2 (UniProt Q92925) -0.031
SMARCAL1 (UniProt Q9NZC9) 0.048
SMARCB1 (UniProt Q12824) -0.033
SNRNP48 (UniProt Q6IEG0) 0
SNRPC (UniProt Q5TAL2) -0.049
SNX11 (UniProt Q9Y5W9) 0.01
SNCA (UniProt P37840) -0.265
SMU1 (UniProt Q2TAY7) 0.005
SNRPB isoform 3 (UniProt P14678) 0.016
SNRPD2 (UniProt P62316) 0.019
SMARCC2 (UniProt Q8TAQ2) 0.01
SNX6, A0A0A0MRI2 0.012
SNRPE (UniProt P62304) 0.014

Already shown: an excerpt of the list.
log2 fold change, inactive:
SMC1B isoform 3 (UniProt Q8NDV3) -0.002
SNX3 (UniProt O60493) -0.044
